Screen size: about 320,000 compounds; about 2,100 (0.66%) were called active. This list was built around the results that the source calls inconclusive (neither active nor inactive); the mix of calls is not that of the screen. Calls come from the whole dose curve; as a rule, active = well fitted inhibition curve with a large enough effect in the signal ratio, with a control signal flat (not every such curve was filed as active); inconclusive = small, poorly fitted or top-dose-only effect, or effect the other way, or a change in a side signal; inactive = flat fitted curve, though single readings scatter; the % refers to the signal ratio. A potency beside an inconclusive call is a rough fit, not a confirmed value.
Assay: qHTS Assay for Lipid Storage Modulators in Drosophila S3 Cells
Conditions: BODIPY lipid droplet fluorescence, 18-24 h, cells fed with added oleic acid; lipid storage change, negative = inhibition: at 46.1 µM (top of the series) unless noted
Description: NIH Molecular Libraries Probe Production Centers Network [MLPCN] NIH Chemical Genomics Center [NCGC] MLPCN Grant: 1 R03 MH085686-01 Assay Submitter (PI): Beller, Mathias; Max-Planck-Institut fur Biophysikalische Chemie NCGC Assay Overview: Storing lipids as a reservoir for energy or the anabolism of elementary metabolites is a common feature of probably all cells and is conserved from bacteria to humans. The universal cellular lipid storage organelle is the so-called lipid storage droplet (LD). Although ubiquitous, LDs share a simple structure composed of a hydrophobic core that harbors the storage lipids, which is shielded by a droplet-specific phospholipid monolayer to which proteins are attached. The current model of LD biogenesis involves an incorporation of the lipid core into the membrane leaflets of the endoplasmic reticulum (ER) followed by a subsequent budding-like maturation of a LD, which ultimately pinches off. Once released, LD volume can increase by localized lipogenesis or fusion of existing droplet. Storage lipids are re-mobilized enzymatically by lipase activity. Lipase regulation in the adipocyte is heavily studied and involves multiple components including catecholamine signaling, the LD-associated proteins Perilipin and comparative gene identification (CGI-58) and at least two lipases named hormone sensitive lipase (HSL) and adipocyte triglyceride lipase (ATGL). LD regulation outside of the adipocyte is poorly understood and only few components are known. However, there is an urgent need to learn more about ectopic fat depots as mislocalized storage of lipids, for example in the liver or muscle, is an eminent health problem associated with insulin resistance or the metabolic syndrome. We developed a laser-scanning cytometer assay to enable 1,536-well screening and combined the results of the small molecules screen with an RNAi database based on lipid storage.
Triacsin C (Sigma-Aldrich T-4540), an inhibitor of long-chain fatty acyl CoA synthetase that blocks synthesis of triglycerides, was used as a positive control for lipid under-storage. A total of 23 nL of compound solution of different concentrations were transferred to the assay plates using a Kalypsys pin tool equipped with a 1,536-pin array containing 10-nL slotted pins (FP1S10, 0.457-mm diameter, 50.8 mm long; V&P Scientific). One microliter of oleic acid (400 uM) was added, and the plate was lidded with stainless steel rubber gasket lined lids containing pinholes. […] Fluorescence was detected by excitation of the fluorophores with a 488-nm laser on an Acumen Explorer (TTP Lab Tech). The total intensity in channel 2 (500-530 nm) reflected lipid droplet accumulation. Cells were detected using channel 3 (575-640 nm) with 5-um width and 100-um depth filters. The ratio of the number of objects in PMT channel 2 over the number of objects in PMT channel 3 was also calculated. Percent activity was computed relative to an internal control (100% inhibited lipid droplet deposition due to the presence of 20 uM Triacsin C), which was added to 32 wells/plate.
For `C=CCn1c(SCC(=O)N2CCCCC2)nnc1-c1ccncc1`, the lipid storage change, negative = inhibition was inconclusive: 8.43%.
With `CCCCn1c(SCC2CCCCO2)nc2cc(S(N)(=O)=O)ccc21` (stereo not given) the lipid storage change, negative = inhibition was inconclusive: 2.7%.
For `Cc1ccc(N2C(=NC(=O)c3ccccc3)SC3CS(=O)(=O)CC32)cc1` (stereo not given), the lipid storage change, negative = inhibition was inconclusive: 18.4%.
In the case of `O=C(c1ccc2c(=O)n(Cc3ccc4c(c3)OCO4)c(=O)[nH]c2c1)N1CCN(c2ccccc2)CC1`, the lipid storage change, negative = inhibition is reported as inconclusive: -8.23%.
With `CC(=O)c1cccc(NC(=O)c2cc(-c3ccco3)on2)c1` the Potency was inconclusive: 0.0052 µM [activator, full curve, poor fit].
In the case of `Cc1ccc(OCCCC(=O)Nc2ccc3c(c2)OCO3)cc1`, the lipid storage change, negative = inhibition is reported as inconclusive: 69.6%.
For `CC1Cc2ccccc2N1C(=O)CCS(=O)(=O)c1ccc2c(c1)NC(=O)CS2` (stereo not given), the lipid storage change, negative = inhibition was inconclusive: -100%.
For `C=CCC1(CC=C)CCCN1C(=O)Cn1nnnc1CN(C)C(C)C`, the lipid storage change, negative = inhibition was inconclusive: -30.2%.
For `Cc1ccc(S(=O)(=O)c2cc3c(=O)n4ccccc4nc3n(C3CCCC3)c2=N)cc1`, the “outcome” value was “inactive [at 46.1 µM]”.
For `CCOC(=O)c1sc(=NC(=O)CCS(=O)(=O)c2ccccc2)n(C)c1C`, the lipid storage change, negative = inhibition was inconclusive: 25.2%.
With `Cc1ccc(Cl)cc1N1CCN(C(=O)C2CCCN(S(=O)(=O)c3cnc[nH]3)C2)CC1` (stereo not given) the Potency was inconclusive: 23.1 µM [falling, single point].
In the case of `COc1ccc(-c2nnc(NC(=O)c3ccc([N+](=O)[O-])o3)o2)c(OC)c1`, the Potency is reported as inconclusive: 14.6 µM [falling, partial curve, poor fit].
In the case of `Cn1c(SCC(=O)Nc2ccc3c(c2)OCCO3)nnc1C(F)(F)F`, the Potency is reported as inconclusive: 2.91 µM [activator, single point].
With `O=C(NC1CC2CCCC(C1)N2C(=O)Nc1ccc(F)cc1)c1ccccc1` (stereo not given) the lipid storage change, negative = inhibition was inconclusive: 22.7%.
For `O=C(CCS(=O)(=O)c1cccc2nonc12)NCCc1ccccc1Cl`, the Potency was inconclusive: 0.82 µM [activator, partial curve].
For `O=C1C2C3C=CC(C3)C2C(=O)N1CCc1ccccc1` (stereo not given), the lipid storage change, negative = inhibition was inconclusive: -0.57%.
In the case of `CC(=O)N1CCC(=NNC(=O)c2cccs2)CC1`, the lipid storage change, negative = inhibition is reported as inconclusive: -0.166%.
In the case of `O=C(NC1CCCCC1)C1(c2ccccc2)CC1(Cl)Cl` (stereo not given), the Potency is reported as inconclusive: 6.51 µM [rising, partial curve].
In the case of `COc1cccc(CN(C(=O)Cc2c[nH]c3ccccc23)C(C(=O)NC2CCCCC2)c2cccs2)c1` (stereo not given), the Potency is reported as inconclusive: 6.51 µM [rising, single point].
For `COc1cc(NC(=O)Cc2ccc([N+](=O)[O-])cc2)c(C(=O)O)cc1OC`, the lipid storage change, negative = inhibition was inconclusive: 31.2%.
For `O=C(c1cc(-c2ccncc2)nc2ccccc12)N1CCN(c2ccccn2)CC1`, the lipid storage change, negative = inhibition was inconclusive: 24.9%.
For `OCc1ccccc1CNCc1ccccc1`, the lipid storage change, negative = inhibition was inconclusive: -6.65%.
In the case of `Cc1csc(NC(=O)CSc2[nH]c(=O)ncc2C)n1`, the “outcome” value is reported as “inactive [at 46.1 µM]”.
With `COc1cc(-c2nc3ccc4ccccc4c3c3c2CCC3)cc(OC)c1O` the Potency was inconclusive: 23.1 µM [falling, single point].
With `CN(C)c1ccc(C2N3CC4(C)CN2CC(C)(C3)C4O)cc1` (stereo not given) the Potency was inconclusive: 29.1 µM [activator, single point].
In the case of `N#Cc1ccc(-c2ccco2)nc1SCC(=O)c1ccc(Cl)cc1`, the lipid storage change, negative = inhibition is reported as inconclusive: -14.3%.
With `Nc1ccc(S(=O)(=O)NNC(=O)C(=O)NNc2ccccn2)cc1` the Potency was inconclusive: 25.9 µM [cytotoxic, partial curve].
With `Cc1cc2c(c(=O)n1CCN(C)C)C(c1ccncc1)C(C#N)=C(N)O2` (stereo not given) the lipid storage change, negative = inhibition was inconclusive: -32.6%.
For `COC(=O)c1cc(S(=O)(=O)NCC2CCN(Cc3cc(C)ccc3C)CC2)cn1C`, the lipid storage change, negative = inhibition was inconclusive: 83.9%.
For `CCc1nc(SCC(=O)Nc2ccc(C(=O)O)cc2)n[nH]1`, the lipid storage change, negative = inhibition was inconclusive: 12.4%.
With `COc1ccc(-c2nc3ccccc3o2)cc1NC(=O)c1ccc(Br)o1` the lipid storage change, negative = inhibition was inconclusive: 30.1%.
For `Cc1ccc(OCC(=O)O)c(-n2nc3ccccc3n2)c1`, the Potency was inconclusive: 6.51 µM [falling, single point].
In the case of `COc1ccc(CCNC(=O)Cc2ccc(NS(=O)(=O)c3ccc(F)cc3)cc2)cc1OC`, the lipid storage change, negative = inhibition is reported as inconclusive: 5.19%.
With `CCCNC(=O)c1ccccc1NC(=O)c1ccc2c(c1)NC(=O)C(C)S2` (stereo not given) the lipid storage change, negative = inhibition was inconclusive: -32%.
In the case of `CSc1ccccc1OCc1cc(C(=O)N[C@H]2CCCCNC2=O)no1`, the Potency is reported as inconclusive: 29.1 µM [falling, single point].
In the case of `NC(=O)[C@@H]1CC2(CC(c3cccc(NC(=O)[C@@H]4CCC(=O)N4)c3)=NO2)CN1C(=O)Cc1ccc([N+](=O)[O-])cc1` (stereo not given in full), the lipid storage change, negative = inhibition is reported as inconclusive: 14.4%.
With `O=[N+]([O-])c1ccc2nc(Cl)nc(-c3ccccc3)c2c1` the lipid storage change, negative = inhibition was inconclusive: 26.1%.
With `CC(=O)c1ccc(OCC(=O)OCC(=O)NCc2ccco2)cc1` the lipid storage change, negative = inhibition was inconclusive: 16.5%.
For `Cc1ccc(/C=C/C(=O)c2ccc(C)cc2)cc1`, the Potency was inconclusive: 6.51 µM [falling, single point].
With `O=C(c1ccc(Cl)c(S(=O)(=O)N2CCCC2)c1)N1CCN(c2ccccc2)CC1` the lipid storage change, negative = inhibition was inconclusive: 6.6%.
With `CN(C)c1ccc(/C=C2/SC(=O)N(CCN=C3NS(=O)(=O)c4ccccc43)C2=O)cc1` the lipid storage change, negative = inhibition was inconclusive: -5.27%.
For `Cc1ccccc1OCCC(=O)N1CCN(S(=O)(=O)c2ccccc2F)CC1`, the Potency was inconclusive: 1.03 µM [activator, partial curve].
For `CC(=O)c1ccc(N=Nc2c(C)[nH]n(-c3ccccc3)c2=O)cc1`, the Potency was inconclusive: 18.4 µM [falling, partial curve, poor fit].
With `Cc1c(C(=O)Nc2ccc(OCc3ccccc3)cc2)cccc1[N+](=O)[O-]` the lipid storage change, negative = inhibition was inconclusive: -64%.
In the case of `Cc1cc(C)nc(/N=C(\N)Nc2ccc(C(C)C)cc2)n1`, the lipid storage change, negative = inhibition is reported as inconclusive: -14.7%.
With `Cc1nc2nc(SCC(=O)NCCCN3CCCCCC3)nn2c(C)c1Cc1ccccc1Cl` the lipid storage change, negative = inhibition was inconclusive: -12.5%.
With `COC(=O)c1c(NC(=O)CN2CCC3(O)CCCCC3C2c2ccccc2OC)sc(C)c1C` (stereo not given) the lipid storage change, negative = inhibition was inconclusive: 29.4%.
For `CC(C)COc1ccc(-c2nn(-c3ccccc3)cc2C(=O)Nc2nccs2)cc1`, the lipid storage change, negative = inhibition was inconclusive: 240%.
For `COc1ccc(C(=O)NCCc2ccc(C)cc2)cc1OC1CCN(C(C)=O)CC1`, the Potency was inconclusive: 2.31 µM [activator, full curve].
For `Cc1ccc(CN2CC(C(=O)Nc3ccc(S(=O)(=O)Nc4cc(C)nc(C)n4)cc3)CC2=O)cc1` (stereo not given), the lipid storage change, negative = inhibition was inconclusive: -38.2%.
With `CC(=O)Nc1cc(N2C(=O)CCC2=O)ccc1Cl` the lipid storage change, negative = inhibition was inconclusive: -8.3%.
With `Cc1cc(Br)cc2c(C(=O)NCC3CCCO3)cc(-c3ccccc3)nc12` (stereo not given) the lipid storage change, negative = inhibition was inconclusive: -6.59%.
With `C(#CC1CCCC1)c1ccc2c(c1)COc1c3ccccc3nn1-2` the lipid storage change, negative = inhibition was inconclusive: 13.9%.
For `N#Cc1c(N2CCN(C(=O)c3ccccc3Cl)CC2)nc(-c2ccccc2)c2c1CCCC2`, the lipid storage change, negative = inhibition was inconclusive: -57%.
In the case of `O=C(COC(=O)C1CCN(S(=O)(=O)c2cccs2)CC1)NCc1ccc(F)cc1`, the lipid storage change, negative = inhibition is reported as inconclusive: -23.1%.
With `Cc1ccc(NC(=O)C23CCC(C)(C(=O)[C@H]2Br)C3(C)C)cc1` (stereo not given in full) the lipid storage change, negative = inhibition was inconclusive: 8.07%.
For `Cc1ccc(-c2cn3c(=S)[nH]nc3s2)cc1`, the lipid storage change, negative = inhibition was inconclusive: 0.111%.
For `COc1ccc(NCN2C(=O)C3C4C=CC(C4)C3C2=O)cc1` (stereo not given), the lipid storage change, negative = inhibition was inconclusive: 29%.
With `C=CCn1c(SCC(=O)Nc2ccccc2OC)nc(O)c(CC)c1=O` the lipid storage change, negative = inhibition was inconclusive: 11.4%.
In the case of `COc1ccc(NC(=O)CN(C)S(=O)(=O)c2ccc(Br)s2)cc1OC`, the Potency is reported as inconclusive: 23.1 µM [falling, single point].
With `CCCCCCCCC(=O)N/N=C/c1cccc(Br)c1` the lipid storage change, negative = inhibition was inconclusive: 7.84%.
For `Cc1cc(C)cc(-n2cnc3cc(C(=O)O)ccc32)c1`, the lipid storage change, negative = inhibition was inconclusive: -46.5%.
For `Cc1ccc(/C=N/NC(=O)c2cc3c(ccc4ccccc43)o2)o1`, the Potency was inconclusive: 23.1 µM [activator, single point].
In the case of `O=C(O)c1ccc(CNC(=O)c2ccc3c(c2)C(=O)N(Cc2cccnc2)C3=O)cc1`, the Potency is reported as inconclusive: 20.6 µM [activator, single point].
For `CCOC(=O)c1ccc(Nc2nc(-c3cccnc3)nc3ccccc23)cc1`, the Potency was inconclusive: 29.1 µM [cytotoxic, single point].
For `O=C1C=C(NCc2ccccc2)C2(CCCCC2)O1`, the lipid storage change, negative = inhibition was inconclusive: -104%.
In the case of `CCOC(=O)N1CCN(C(=O)CSC2=NS(=O)(=O)c3cc(F)ccc3N2)CC1`, the lipid storage change, negative = inhibition is reported as “inconclusive”.
With `O=C(Nc1ccccc1N1CCOCC1)c1ccc2c(c1)C(=O)N(Cc1ccncc1)C2=O` the lipid storage change, negative = inhibition was inconclusive: 9.82%.
For `O=C(Nc1cc(C(=O)N2CCCC2)ccc1N1CCCC1)c1ccccc1`, the lipid storage change, negative = inhibition was inconclusive: 24.6%.
For `c1ccc(COc2cccc(CNCc3cccs3)c2)cc1`, the Potency was inconclusive: 18.4 µM [activator, single point].
For `COc1ccccc1NC(=O)c1sc2ncn(Cc3cccc(C)c3)c(=O)c2c1C`, the Potency was inconclusive: 0.461 µM [activator, single point].
For `CCC(Cc1ccccc1)NC(=O)C1CCC(CNc2c(N3CCCC3)c(=O)c2=O)CC1` (stereo not given), the Potency was inconclusive: 29.1 µM [falling, single point].
With `CC1(C)CC(=O)C=C(NCc2cccnc2)C1` the Potency was inconclusive: 0.13 µM [falling, full curve, poor fit].
For `Cc1ccc(C)c(NC(=O)c2cnc3n(c2=O)CCS3)c1`, the Potency was inconclusive: 0.517 µM [activator, single point].
For `N#Cc1c(-c2cccs2)cc(C2CC2)nc1SCC(N)=O`, the Potency was inconclusive: 2.06 µM [activator, partial curve, poor fit].

— PubChem BioAssay AID2685 (National Center for Advancing Translational Sciences (NCATS), 2010)
% is set by controls: 0 for no effect and ±100 for the full control effect; potency is the fitted concentration of half-maximal effect.
